PubChem BioAssay AID652243 | Drosophila RNAi Screening Center, 2013
The screen tested about 24,000 reagents; below is an unselected part of those that have a named target and a result. Over the whole deposit, 246 (1%) got an active call. 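Plates not normalised; calls are printed but the firefly/Renilla ratio behind them is not deposited; fold cut for lowering reported inconsistently.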 The raw values are shown without normalisation. The numbers tell different reagents against one gene apart. Names joined by + are all predicted targets of the reagent. Not stated in the record: the amount of reagent.

Assay: 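Knock-downs that decrease or increase androgen receptor reporter signal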 (primary screen)
Cell system: Drosophila S2R+ cells
Reagents: long dsRNA against Drosophila genes
Time to read-out: 72 h (48 h, then 24 h hormone)
Conditions: synthetic androgen R1881 at 10 nM for 24 h
Measured: 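Per-well raw luminescence of the androgen-driven firefly reporter and of the Renilla control, two replicates each, without normalisation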
Scale: firefly reporter light: higher = more light from androgen-responsive reporter; Renilla control light: higher = more constitutive control signal (cell number, transfection)
Rule for the call: 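Across duplicate plates, a knock-down whose log firefly/Renilla ratio shifted a set fold down or up from the GFP/LacZ control mean was a hit; the downward cut appears as both 1.5 and 3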
Meaning of the calls: active = hit: reporter lowered or raised; inactive = no hit

Silencing of CG17982 came out at: firefly reporter light, replicate 1 = 2.30e5; firefly reporter light, replicate 2 = 2.11e5; Renilla control light, replicate 1 = 2.43e6; Renilla control light, replicate 2 = 1.47e6; inactive. Knock-down of CARPB #1 gave: firefly reporter light, replicate 1 = 7.40e5; firefly reporter light, replicate 2 = 8.54e5; Renilla control light, replicate 1 = 1.63e6; Renilla control light, replicate 2 = 1.95e6; inactive. After knock-down of CARPB #2 the results were firefly reporter light, replicate 1 = 3.37e5; firefly reporter light, replicate 2 = 3.85e5; Renilla control light, replicate 1 = 3.00e6; Renilla control light, replicate 2 = 2.84e6; inactive. With knock-down of CG42561 the results were firefly reporter light, replicate 1 = 1.60e5; firefly reporter light, replicate 2 = 2.03e5; Renilla control light, replicate 1 = 3.19e5; Renilla control light, replicate 2 = 2.72e5; inactive. Depletion of CG8034 #1 gave: firefly reporter light, replicate 1 = 81787; firefly reporter light, replicate 2 = 67405; Renilla control light, replicate 1 = 3.29e5; Renilla control light, replicate 2 = 4.31e5; inactive. With knock-down of CG8034 #2, the record shows firefly reporter light, replicate 1 = 6.12e5; firefly reporter light, replicate 2 = 3.30e5; Renilla control light, replicate 1 = 8.26e5; Renilla control light, replicate 2 = 7.79e5; inactive.

Against Dll #1, the entry reads firefly reporter light, replicate 1 = 3.26e5; firefly reporter light, replicate 2 = 3.23e5; Renilla control light, replicate 1 = 2.20e6; Renilla control light, replicate 2 = 2.24e6; inactive. Dll #2 scored firefly reporter light, replicate 1 = 2.34e5; firefly reporter light, replicate 2 = 2.64e5; Renilla control light, replicate 1 = 5.44e5; Renilla control light, replicate 2 = 5.40e5; inactive. Depletion of CG10465 came out at: firefly reporter light, replicate 1 = 3.28e5; firefly reporter light, replicate 2 = 3.27e5; Renilla control light, replicate 1 = 1.65e6; Renilla control light, replicate 2 = 1.69e6; inactive. After knock-down of Trm1 the results were firefly reporter light, replicate 1 = 9.71e5; firefly reporter light, replicate 2 = 9.61e5; Renilla control light, replicate 1 = 2.27e6; Renilla control light, replicate 2 = 2.60e6; inactive. With knock-down of ChAT #1 the results were firefly reporter light, replicate 1 = 3.23e5; firefly reporter light, replicate 2 = 2.43e5; Renilla control light, replicate 1 = 3.91e6; Renilla control light, replicate 2 = 2.59e6; inactive. For ChAT #2, the values are firefly reporter light, replicate 1 = 7.35e5; firefly reporter light, replicate 2 = 9.37e5; Renilla control light, replicate 1 = 1.71e6; Renilla control light, replicate 2 = 2.58e6; inactive.

Knock-down of Aprt gave: firefly reporter light, replicate 1 = 77611; firefly reporter light, replicate 2 = 80155; Renilla control light, replicate 1 = 1.51e6; Renilla control light, replicate 2 = 1.46e6; inactive. dare + CG30033 gave firefly reporter light, replicate 1 = 7.34e5; firefly reporter light, replicate 2 = 1.58e6; Renilla control light, replicate 1 = 3.03e5; Renilla control light, replicate 2 = 4.13e5; inactive. With knock-down of Ncc69 #1 the results were firefly reporter light, replicate 1 = 7.39e5; firefly reporter light, replicate 2 = 7.34e5; Renilla control light, replicate 1 = 1.14e6; Renilla control light, replicate 2 = 1.25e6; inactive. Knock-down of Ncc69 #2 gave: firefly reporter light, replicate 1 = 2.85e5; firefly reporter light, replicate 2 = 3.64e5; Renilla control light, replicate 1 = 2.29e6; Renilla control light, replicate 2 = 2.17e6; inactive. After knock-down of Ncc69 #3 the results were firefly reporter light, replicate 1 = 7.64e5; firefly reporter light, replicate 2 = 9.37e5; Renilla control light, replicate 1 = 1.13e6; Renilla control light, replicate 2 = 1.30e6; inactive. With knock-down of Ir8a #1, the screen gave firefly reporter light, replicate 1 = 1.40e5; firefly reporter light, replicate 2 = 2.33e5; Renilla control light, replicate 1 = 2.07e6; Renilla control light, replicate 2 = 2.49e6; inactive.

After knock-down of Ir8a #2, the screen gave firefly reporter light, replicate 1 = 3.30e5; firefly reporter light, replicate 2 = 5.28e5; Renilla control light, replicate 1 = 1.79e6; Renilla control light, replicate 2 = 2.62e6; inactive. After knock-down of CG14072, the screen gave firefly reporter light, replicate 1 = 2.69e5; firefly reporter light, replicate 2 = 1.58e5; Renilla control light, replicate 1 = 1.76e6; Renilla control light, replicate 2 = 1.25e6; inactive. Against lncRNA:CR30009 #1, the entry reads firefly reporter light, replicate 1 = 3.78e5; firefly reporter light, replicate 2 = 1.11e6; Renilla control light, replicate 1 = 1.35e6; Renilla control light, replicate 2 = 1.73e6; inactive. For lncRNA:CR30009 #2 the deposit lists firefly reporter light, replicate 1 = 4.45e5; firefly reporter light, replicate 2 = 3.89e5; Renilla control light, replicate 1 = 1.22e6; Renilla control light, replicate 2 = 1.24e6; inactive.

An excerpt of the results above:
lncRNA:CR30009 #1 — firefly reporter light, replicate 1 = 3.78e5; firefly reporter light, replicate 2 = 1.11e6; Renilla control light, replicate 1 = 1.35e6; Renilla control light, replicate 2 = 1.73e6; activity call = inactive
lncRNA:CR30009 #2 — firefly reporter light, replicate 1 = 4.45e5; firefly reporter light, replicate 2 = 3.89e5; Renilla control light, replicate 1 = 1.22e6; Renilla control light, replicate 2 = 1.24e6; activity call = inactive
